Source: publication PMC9681887
No constants are given. Whether binding was seen depends on the method and setting. In cells and extracts the contact can be indirect. For some assays here: Binding calls can cover weak binding; strength is not graded here.

Amino acid sequences for entries named in this document (tags omitted). A change or cut given only in a name is not applied to a line headed by its entry.
UniProt P06804: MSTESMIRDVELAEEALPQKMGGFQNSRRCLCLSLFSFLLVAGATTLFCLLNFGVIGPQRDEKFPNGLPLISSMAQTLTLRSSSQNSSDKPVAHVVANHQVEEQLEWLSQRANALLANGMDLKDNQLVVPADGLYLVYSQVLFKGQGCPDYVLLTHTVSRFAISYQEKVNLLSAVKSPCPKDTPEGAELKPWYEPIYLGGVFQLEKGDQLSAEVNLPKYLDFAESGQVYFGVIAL

Legend:
Flag-TNFα = Flag-TNFα (UniProt P06804); assay: co-IP; MEFs (SENP1-WT, SENP1-KD, PIAS1-KO, SENP1-KO or reconstituted lines; with or without Nec-1s 10 μM) stimulated with Flag-TNFα (100 ng/ml) for the indicated time; lysis in 0.5% NP-40 buffer (50 mM Tris-HCl pH 7.5, 150 mM NaCl, 5% glycerol, N-ethylmaleimide); TNF-RSC precipitated with anti-Flag M2 beads overnight at 4 °C; immunoblot; only the target purified
[1] = target: SENP1 (ectopically expressed); assay: co-IP; ectopically expressed proteins (HEK293T where stated); lysate in 50 mM Tris-HCl pH 7.5, 150 mM NaCl, 1% NP40, 5% glycerol; antibody overnight at 4 °C, protein A/G agarose; immunoblot

B1: A20 (protein, UniProt Q60769 1-775)
chain: MAEQLLPQALYLSNMRKAVKIRERTPEDIFKPTNGIIYHFKTMHRYTLEMFRTCQFCPQFREIIHKALIDRSVQASLESQKKLNWCREVRKLVALKTNGDGNCLMHAACQYMWGVQDTDLVLRKALCSTLKETDTRNFKFRWQLESLKSQEFVETGLCYDTRNWNDEWDNLVKMASADTPAARSGLQYNSLEEIHIFVLSNILRRPIIVISDKMLRSLESGSNFAPLKVGGIYLPLHWPAQECYRYPIVLGYDSQHFVPLVTLKDSGPELRAVPLVNRDRGRFEDLKVHFLTDPENEMKEKLLKEYLIVMEIPVQGWDHGTTHLINAAKLDEANLPKEINLVDDYFELVQHEYKKWQENSDQARRAAHAQNPLEPSTPQLSLMDIKCETPNCPFFMSVNTQPLCHECSERRQKNQSKLPKLNSKLGPEGLPGVGLGSSNWSPEETAGGPHSAPPTAPSLFLFSETTAMKCRSPGCPFTLNVQHNGFCERCHARQINASHTADPGKCQACLQDVTRTFNGICSTCFKRTTAEPSSSLTSSIPASCHQRSKSDPSQLIQSLTPHSCHRTGNVSPSGCLSQAARTPGDRAGTSKCRKAGCMYFGTPENKGFCTLCFIEYRENKQSVTASEKAGSPAPRFQNNVPCLGRECGTLGSTMFEGYCQKCFIEAQNQRFHEARRTEEQLRSSQHRDMPRTTQVASRLKCARASCKNILACRSEELCMECQHLSQRVGSVAHRGEPTPEEPPKQRCRAPACDHFGNAKCNGYCNECYQFKQMYG
With B1 as the binder, how does the binding (Flag-TNFα) read?
The binding was “binds”.

B2: A20 (tested against SENP1) (protein, UniProt Q60769 1-775)
chain: B1 chain
How did the binding [1] turn out when B2 was run?
The binding was “no binding”.
